Results from the supplement of paper PMC3334620.
Over roughly 33,000 sequences, “E-score (-0.5 to 0.5)” has its median near -0.015; the highest 2% begin near 0.3. This is one part of the list.

Target: T1, Abf1 (UniProt P14164)
T1 sequence: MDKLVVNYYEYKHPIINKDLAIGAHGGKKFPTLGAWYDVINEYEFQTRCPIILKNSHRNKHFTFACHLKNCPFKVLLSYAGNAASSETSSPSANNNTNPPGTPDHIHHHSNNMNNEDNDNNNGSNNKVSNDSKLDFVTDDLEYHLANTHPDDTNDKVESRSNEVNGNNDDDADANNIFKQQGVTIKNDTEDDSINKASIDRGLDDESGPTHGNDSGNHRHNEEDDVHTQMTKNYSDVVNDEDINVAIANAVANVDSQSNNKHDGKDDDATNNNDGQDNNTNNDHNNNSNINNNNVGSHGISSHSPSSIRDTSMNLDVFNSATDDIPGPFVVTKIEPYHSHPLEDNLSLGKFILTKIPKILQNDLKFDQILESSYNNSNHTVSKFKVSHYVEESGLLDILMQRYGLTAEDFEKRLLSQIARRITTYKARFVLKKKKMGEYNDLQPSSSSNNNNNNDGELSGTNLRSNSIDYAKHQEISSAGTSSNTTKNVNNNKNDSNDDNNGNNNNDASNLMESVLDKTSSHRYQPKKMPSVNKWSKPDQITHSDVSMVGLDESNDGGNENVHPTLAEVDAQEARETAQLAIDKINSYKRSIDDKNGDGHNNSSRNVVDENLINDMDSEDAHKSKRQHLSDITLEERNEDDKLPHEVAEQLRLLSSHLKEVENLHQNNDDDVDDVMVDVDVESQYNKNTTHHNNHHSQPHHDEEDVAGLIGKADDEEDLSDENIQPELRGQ
Assay: PBM E-score (8-mer binding enrichment) (E-score (-0.5 to 0.5)); higher = stronger / more preferred TF binding
Conditions: protein concentration: 200 nM; construct: GST-full length
Outline: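 The E-score, a modified Wilcoxon-Mann-Whitney statistic, was computed by the Universal PBM Analysis Suite for every ungapped eight-base word pooled with its reverse complement. Scans behind it were normalised with masliner after bound GST-tagged yeast transcription factors were detected with fluorescent anti-GST. The proteins, at about 100-200 nM, had been applied to universal all-10-mer Agilent arrays made double-stranded by primer extension.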

| Sequence | PBM E-score |
| --- | --- |
| ACAAGGCG | -0.0424 |
| TGAGTAAA | -0.0564 |
| ACTTGGAT | 0.0225 |
| GGATAGGA | -0.137 |
| GAGCAGAA | -0.0795 |
| CGCGCCTA | 0.116 |
| CTCAGAGC | -0.255 |
| GAAAACGA | 0.252 |
| TGGTAACA | 0.0805 |
| AAAAAAAT | 0.172 |
| GAGAAAAC | -0.00255 |
| AAATTACC | -0.0299 |
| AGAGTAGC | -0.278 |
| TCCGACCA | -0.143 |
| CTGCAGTC | -0.138 |
| TATCAGAA | 0.0936 |
| ATATGAAA | 0.242 |
| ATAATTGG | -0.0522 |
| AATATAGT | 0.102 |
| GTATTATA | 0.22 |
| ATGAGTTC | -0.0585 |
| ATAACCGG | -0.152 |
| AGACTATG | -0.227 |
| GAGATTAA | 0.0915 |
| ATTTGTTA | 0.201 |

An excerpt of these results, as comma-separated lines.
Sequence,PBM E-score
CGCGCCTA,0.116
CTCAGAGC,-0.255
GAAAACGA,0.252
TGGTAACA,0.0805

(continued)

| Sequence | PBM E-score |
| --- | --- |
| CCACAGTA | 0.00338 |
| ACGGGCAG | 0.00723 |
| CATTAATG | 0.221 |
| AGAGGCTC | -0.241 |
| CTTGGTAC | 0.22 |
| AATATGCC | -0.0427 |
| CTTTTCAC | 0.0993 |
| CTGATTAA | 0.186 |
| GGGACTAC | -0.0569 |
| CAATGCAC | 0.0437 |
| CAGTAATA | 0.304 |
| CGAGCGGA | -0.0371 |
| GAGGGCGC | -0.289 |
| GGAGAGCA | -0.253 |
| CATAGATG | -0.276 |
| GGAAGGAC | 0.0147 |
| GAGTTAAA | 0.0205 |
| GACGCAGA | -0.0453 |
| CGCAGCAA | -0.037 |
| AAATTGCT | -0.194 |
| ATCTGAAG | -0.1 |
| AATCGTTC | 0.119 |
| CCTGGGTC | -0.151 |
| AGTTGATG | -0.0602 |
| AAGTACAG | -0.229 |

| Sequence | PBM E-score |
| --- | --- |
| TGTCTAAA | 0.189 |
| CGTCCAAG | -0.0596 |
| ATCTTATC | 0.0804 |
| GGGCGCTA | -0.0605 |
| ATCCCAAG | -0.123 |
| ACCCACAC | -0.00825 |
| AACGGAGG | -0.167 |
| AGACGTGC | 0.278 |
| GCGTAAGA | -0.0591 |
| AGCCTGTA | -0.0756 |
| AACTCTGT | -0.181 |
| CGCCTACC | -0.0178 |
| GACTACCC | -0.178 |
| AATAGGCG | -0.0464 |
| AAAATCCA | 0.128 |
| GCGAACTA | -0.0767 |
| ACCATCAC | -0.0552 |
| CGACCGGC | -0.23 |
| GGGTACAA | -0.00239 |
| CGGCAAAG | -0.0158 |
| ACGTTTCA | 0.0549 |
| AGCATTGC | 0.026 |
| AGTAATCG | 0.0678 |
| AACTAGCA | -0.229 |
| GTTGGTCA | 0.221 |

| Sequence | PBM E-score |
| --- | --- |
| ACATCCTG | -0.0316 |
| AAACATCT | -0.077 |
| GGTATCCA | 0.023 |
| GCGTTCCC | -0.0877 |
| AGATCTGC | 0.127 |
| AGACTGCT | -0.264 |
| AGCATAAG | -0.0422 |
| ACTTGATC | 0.0974 |
| GGACGTTA | 0.0457 |
| GTCCTACA | -0.0143 |
| AATCTGTA | 0.0445 |
| ATCACATC | 0.117 |
| ATCACCAT | 0.254 |
| AACAATAA | 0.183 |
| CCGTCAAG | 0.0668 |
| CAACGGGG | -0.0368 |
| ATTCACCG | 0.0879 |
| GTATCGAC | 0.0474 |
| CATTTAAC | -0.0151 |
| CTCGCCAC | 0.00709 |
| CCCAAGGA | -0.214 |
| AACCATGT | -0.0445 |
| GCAACACA | -0.165 |
| ACCGAATG | 0.0364 |
| GAGAGGGC | -0.392 |

| Sequence | PBM E-score |
| --- | --- |
| ACCTCTGA | -0.169 |
| AGTCTAAC | -0.2 |
| AAACGCCG | 0.185 |
| ATCTTGGG | 0.158 |
| CGAGATGA | 0.0379 |
| CCCCTGGC | -0.333 |
| CAGTGAAG | -0.0452 |
| AACCTGGC | -0.112 |
| ACTAATTC | 0.0769 |
| CAAGGTGC | -0.0647 |
| GACTAATC | 0.137 |
| GTCCCAAC | 0.0207 |
| GTAGAGTA | 0.035 |
| GGTCACAA | 0.0662 |
| ATCCATAA | 0.0983 |
| GATGCATC | 0.113 |
| AGCATTCA | -0.146 |
| AAAGGCCC | 0.0407 |
| ACATCAGA | 0.0196 |
| AGTGATTC | 0.207 |
| ACGGTAAT | 0.0479 |
| AACTAATG | 0.0464 |
| ATTCCTTA | 0.0267 |
| ACCATTAA | 0.156 |
| AACCCAGA | -0.13 |

Exported with tabs: part of the list above.
Sequence	PBM E-score
ATATGAAA	0.242
ACATCCTG	-0.0316
AACCATGT	-0.0445
GAGAGGGC	-0.392

(further entries)

| Sequence | PBM E-score |
| --- | --- |
| TACGTCAA | 0.117 |
| CCTGAGCG | -0.047 |
| CACACATA | -0.133 |
| CAGTACTC | -0.238 |
| AACGGTGT | 0.125 |
| GCAGTGAA | -0.0423 |
| CTGTGCAA | 0.0274 |
| CCGTGACC | 0.157 |
| GAAGGCTC | -0.153 |
| CTGACGCA | -0.203 |
| CCACCGTA | 0.341 |
| AGGCTCTC | -0.287 |
| CCCTAGTC | -0.269 |
| CAGCACGG | 0.147 |
| ACGAGTAG | 0.198 |
| AACTTATA | 0.0716 |
| ATCAGCGG | -0.201 |
| CTAAGAAC | -0.114 |
| TCTTCGAA | -0.00519 |
| CACATGAA | -0.00507 |
| ATAAGAAC | 0.244 |
| ATACCAAT | 0.12 |
| AATTTGCC | -0.136 |
| CTTCGACC | -0.0331 |
| TATTCTCA | 0.00152 |

| Sequence | PBM E-score |
| --- | --- |
| AAATACGG | 0.314 |
| GATTAGCC | -0.0198 |
| CAATGCCG | -0.0313 |
| CTTATTGC | -0.138 |
| AAGTATGT | 0.0702 |
| CAGGCGCA | -0.201 |
| AGAACGTG | 0.136 |
| AATAACAT | 0.21 |
| AACTTCGA | -0.0314 |
| CTCAGATA | 0.2 |
| TAGGGTCA | 0.0468 |
| ACATCGAC | -0.0198 |
| AATTTACT | 0.151 |
| CAACCTTG | -0.0633 |
| CGGTGGGC | -0.264 |
| AGCAGTGC | -0.18 |
| TAGGCGGA | -0.0812 |
| TTGCGCAA | 0.119 |
| ATCCCACC | -0.258 |
| CGCATTTA | 0.228 |
| CCCAGAGG | -0.481 |
| AGACCGCC | -0.16 |
| CCCGGACG | 0.00493 |
| ATCACCAA | 0.24 |
| ATATCCCG | 0.191 |

4 entries from above in another layout:
GATTAGCC
  PBM E-score = -0.0198
AAGTATGT
  PBM E-score = 0.0702
AACTTCGA
  PBM E-score = -0.0314
CTCAGATA
  PBM E-score = 0.2

Continued:

| Sequence | PBM E-score |
| --- | --- |
| ATCCGAAG | -0.109 |
| AGGCGCAA | 0.00332 |
| TTCCGCAA | -0.077 |
| GGTTCCGA | -0.0014 |
| GAACCCTC | -0.194 |
| CATAGTAC | 0.1 |
| GTACCCAC | -0.2 |
| CGAACTAG | 0.00367 |
| CGTCTATC | 0.0313 |
| CAGTTTCA | -0.0826 |
| CTTGTAGA | -0.145 |
| GTAACATA | 0.0896 |
| GTTTGCTA | -0.0151 |
| CCACTATC | 0.0206 |
| AGGCACGC | 0.0267 |
| TTAACGAA | 0.207 |
| GAACTTAA | 0.043 |
| CTTCCGCC | -0.12 |
| ATCATTGA | 0.282 |
| ATGAGAGC | 0.00671 |
| GTATGACA | 0.176 |
| ACATCCGT | 0.0663 |
| ATGGCTGG | -0.191 |
| ATCAAGGC | -0.111 |
| CCGGGGTC | -0.138 |

| Sequence | PBM E-score |
| --- | --- |
| GATCACCA | 0.308 |
| ACGCAACA | 0.286 |
| CACCAGCA | 0.0489 |
| CTCAGCAC | 0.074 |
| AAACGGCC | 0.0186 |
| CCTGGAAA | -0.0105 |
| CGGGTTGA | -0.206 |
| CCTTCGCA | -0.0677 |
| TACGCGTA | -0.0262 |
| GTGGAGAA | 0.0678 |
| GTGATGCA | 0.185 |
| GCTACCTA | -0.127 |
| ACTACGAA | 0.205 |
| GTTCCCTA | -0.0194 |
| AACGTCCG | 0.103 |
| GATCACTA | 0.389 |
| CGATAATA | 0.326 |
| TAAATTTA | 0.258 |
| TCTTGTCA | 0.213 |
